Read-outs that look alike come from different tables or passages of the source. No constants are given. Whether binding was seen depends on the method and setting. Binding seen in cells or lysates may run through a third protein. These calls come from enrichment with a bait or labelling near it, and not all partners need be listed. Where a sequence is shown, tags or fusion partners need not be part of it. Each block holds one molecule with its values, some of them ahead of it.
Key:
[1] = biological target: T1, His-tagged VDR (VDRv1-His) (human) (UniProt P11473); assay: affinity purification with mass spectrometry
T1 sequence: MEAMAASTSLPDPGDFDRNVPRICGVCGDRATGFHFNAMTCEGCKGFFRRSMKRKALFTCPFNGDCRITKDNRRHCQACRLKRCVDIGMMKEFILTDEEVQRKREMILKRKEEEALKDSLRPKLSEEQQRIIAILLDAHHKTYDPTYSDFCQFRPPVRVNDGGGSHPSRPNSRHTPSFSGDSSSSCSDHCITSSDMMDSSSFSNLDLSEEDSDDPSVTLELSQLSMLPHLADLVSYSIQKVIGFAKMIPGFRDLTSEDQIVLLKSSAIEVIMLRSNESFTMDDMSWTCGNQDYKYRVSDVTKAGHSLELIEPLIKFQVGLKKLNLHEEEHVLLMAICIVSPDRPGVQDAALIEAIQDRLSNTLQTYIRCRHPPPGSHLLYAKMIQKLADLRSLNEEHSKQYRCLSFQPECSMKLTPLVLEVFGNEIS

Sequences of proteins named here, by UniProt entry; tags and fusion partners are left off.
UniProt P51532: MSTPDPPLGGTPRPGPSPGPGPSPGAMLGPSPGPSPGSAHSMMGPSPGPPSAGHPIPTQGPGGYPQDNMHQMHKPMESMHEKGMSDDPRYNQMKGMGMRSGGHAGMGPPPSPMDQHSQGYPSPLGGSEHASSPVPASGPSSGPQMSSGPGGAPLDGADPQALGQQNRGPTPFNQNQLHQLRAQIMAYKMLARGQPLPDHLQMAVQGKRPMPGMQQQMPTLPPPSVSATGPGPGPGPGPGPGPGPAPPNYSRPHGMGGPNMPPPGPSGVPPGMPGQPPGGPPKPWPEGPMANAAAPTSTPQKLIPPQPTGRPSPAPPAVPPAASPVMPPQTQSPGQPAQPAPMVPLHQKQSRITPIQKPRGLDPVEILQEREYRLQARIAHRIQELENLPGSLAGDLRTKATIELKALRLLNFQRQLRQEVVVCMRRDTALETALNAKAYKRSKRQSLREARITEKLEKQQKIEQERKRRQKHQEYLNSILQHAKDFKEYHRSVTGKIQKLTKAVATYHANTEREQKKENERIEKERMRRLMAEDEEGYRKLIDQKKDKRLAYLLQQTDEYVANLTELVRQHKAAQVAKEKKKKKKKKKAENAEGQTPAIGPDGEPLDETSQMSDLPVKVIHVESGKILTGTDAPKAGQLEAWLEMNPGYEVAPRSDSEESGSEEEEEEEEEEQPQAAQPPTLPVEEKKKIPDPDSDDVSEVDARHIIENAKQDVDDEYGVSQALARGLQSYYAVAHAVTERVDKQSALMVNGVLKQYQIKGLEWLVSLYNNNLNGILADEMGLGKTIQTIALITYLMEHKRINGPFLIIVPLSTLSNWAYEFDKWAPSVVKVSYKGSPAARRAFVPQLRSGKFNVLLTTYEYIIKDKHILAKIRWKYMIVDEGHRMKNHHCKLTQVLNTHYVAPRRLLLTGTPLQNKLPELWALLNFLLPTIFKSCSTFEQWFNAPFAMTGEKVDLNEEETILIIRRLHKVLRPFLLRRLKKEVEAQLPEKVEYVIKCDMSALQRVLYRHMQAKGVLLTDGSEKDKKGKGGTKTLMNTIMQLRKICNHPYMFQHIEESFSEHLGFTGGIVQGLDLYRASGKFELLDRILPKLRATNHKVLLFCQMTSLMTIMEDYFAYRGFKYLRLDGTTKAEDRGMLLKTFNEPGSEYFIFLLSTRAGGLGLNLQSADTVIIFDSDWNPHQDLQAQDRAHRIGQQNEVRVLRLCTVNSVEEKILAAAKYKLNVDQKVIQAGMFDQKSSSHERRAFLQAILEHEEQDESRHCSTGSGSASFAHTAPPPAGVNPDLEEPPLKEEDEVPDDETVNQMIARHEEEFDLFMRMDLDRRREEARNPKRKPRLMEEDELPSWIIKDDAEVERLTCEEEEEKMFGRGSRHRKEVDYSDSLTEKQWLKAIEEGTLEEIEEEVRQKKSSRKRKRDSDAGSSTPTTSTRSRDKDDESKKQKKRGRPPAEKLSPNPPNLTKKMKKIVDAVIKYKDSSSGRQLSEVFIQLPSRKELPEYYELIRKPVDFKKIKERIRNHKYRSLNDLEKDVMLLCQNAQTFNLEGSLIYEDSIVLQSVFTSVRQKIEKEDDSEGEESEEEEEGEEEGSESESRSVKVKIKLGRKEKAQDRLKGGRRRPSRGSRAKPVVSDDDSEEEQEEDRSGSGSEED
UniProt Q92793: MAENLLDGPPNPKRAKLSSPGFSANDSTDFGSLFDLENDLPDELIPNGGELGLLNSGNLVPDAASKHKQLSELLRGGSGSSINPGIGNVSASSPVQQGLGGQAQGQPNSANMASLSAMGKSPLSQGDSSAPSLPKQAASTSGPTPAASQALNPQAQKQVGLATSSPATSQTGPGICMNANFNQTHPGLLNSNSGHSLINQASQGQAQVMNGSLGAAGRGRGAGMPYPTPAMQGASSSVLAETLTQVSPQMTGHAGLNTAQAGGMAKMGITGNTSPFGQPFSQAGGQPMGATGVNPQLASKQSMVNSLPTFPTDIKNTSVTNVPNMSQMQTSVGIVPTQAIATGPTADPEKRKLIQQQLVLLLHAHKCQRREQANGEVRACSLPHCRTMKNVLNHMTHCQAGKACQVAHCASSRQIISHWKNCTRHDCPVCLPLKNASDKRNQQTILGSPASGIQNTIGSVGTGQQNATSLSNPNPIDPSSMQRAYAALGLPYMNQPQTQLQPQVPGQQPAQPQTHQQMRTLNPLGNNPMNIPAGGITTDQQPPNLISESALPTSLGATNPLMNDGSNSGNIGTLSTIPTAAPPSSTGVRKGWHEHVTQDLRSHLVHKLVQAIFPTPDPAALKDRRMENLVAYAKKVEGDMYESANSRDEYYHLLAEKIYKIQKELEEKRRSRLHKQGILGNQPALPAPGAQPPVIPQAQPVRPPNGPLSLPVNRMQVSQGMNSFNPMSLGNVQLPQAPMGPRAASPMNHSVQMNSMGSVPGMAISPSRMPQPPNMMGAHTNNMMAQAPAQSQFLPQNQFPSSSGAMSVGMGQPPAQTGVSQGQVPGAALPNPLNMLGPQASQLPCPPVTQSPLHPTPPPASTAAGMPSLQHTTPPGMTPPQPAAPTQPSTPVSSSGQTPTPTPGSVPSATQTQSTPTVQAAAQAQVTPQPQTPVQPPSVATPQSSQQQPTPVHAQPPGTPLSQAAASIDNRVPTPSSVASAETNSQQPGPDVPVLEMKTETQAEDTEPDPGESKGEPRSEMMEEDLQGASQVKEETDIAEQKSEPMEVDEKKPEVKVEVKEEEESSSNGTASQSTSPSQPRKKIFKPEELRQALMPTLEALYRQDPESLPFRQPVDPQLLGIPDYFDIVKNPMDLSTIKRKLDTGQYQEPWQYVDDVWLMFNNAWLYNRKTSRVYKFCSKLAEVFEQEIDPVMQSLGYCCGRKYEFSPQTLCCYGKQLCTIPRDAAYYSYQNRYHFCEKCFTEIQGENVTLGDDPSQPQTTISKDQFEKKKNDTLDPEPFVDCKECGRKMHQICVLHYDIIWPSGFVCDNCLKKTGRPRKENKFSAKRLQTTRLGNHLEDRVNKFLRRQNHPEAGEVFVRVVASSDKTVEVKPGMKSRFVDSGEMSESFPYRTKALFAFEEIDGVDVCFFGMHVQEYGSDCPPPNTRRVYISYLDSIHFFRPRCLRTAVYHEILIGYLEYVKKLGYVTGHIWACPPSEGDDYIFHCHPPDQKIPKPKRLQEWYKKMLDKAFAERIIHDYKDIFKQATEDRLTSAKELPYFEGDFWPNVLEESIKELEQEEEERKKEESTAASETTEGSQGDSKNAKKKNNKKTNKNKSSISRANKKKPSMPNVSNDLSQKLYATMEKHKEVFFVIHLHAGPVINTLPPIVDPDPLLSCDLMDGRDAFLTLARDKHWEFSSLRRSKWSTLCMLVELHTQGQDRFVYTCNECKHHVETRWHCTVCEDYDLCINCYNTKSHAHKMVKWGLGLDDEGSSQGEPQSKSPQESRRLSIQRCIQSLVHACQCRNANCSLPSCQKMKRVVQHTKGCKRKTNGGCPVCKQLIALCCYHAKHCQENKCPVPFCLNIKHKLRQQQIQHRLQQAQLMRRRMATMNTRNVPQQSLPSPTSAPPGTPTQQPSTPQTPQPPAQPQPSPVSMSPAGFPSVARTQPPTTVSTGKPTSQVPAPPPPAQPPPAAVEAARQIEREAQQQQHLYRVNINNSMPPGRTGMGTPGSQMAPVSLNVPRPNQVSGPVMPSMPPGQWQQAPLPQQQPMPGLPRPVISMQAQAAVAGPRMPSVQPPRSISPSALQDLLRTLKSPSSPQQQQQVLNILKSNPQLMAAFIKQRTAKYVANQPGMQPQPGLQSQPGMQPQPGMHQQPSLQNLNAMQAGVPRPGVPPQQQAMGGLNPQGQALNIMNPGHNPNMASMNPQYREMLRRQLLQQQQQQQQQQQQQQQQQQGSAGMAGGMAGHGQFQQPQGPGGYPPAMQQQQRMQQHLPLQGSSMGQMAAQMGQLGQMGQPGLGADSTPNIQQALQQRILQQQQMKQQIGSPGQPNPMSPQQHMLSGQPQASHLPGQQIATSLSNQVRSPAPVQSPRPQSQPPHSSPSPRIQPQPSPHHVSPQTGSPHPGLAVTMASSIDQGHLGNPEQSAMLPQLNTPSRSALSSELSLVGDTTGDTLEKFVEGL

[2] = biological target: T1, His-tagged VDR (VDRv1-His) (human); assay: affinity purification with mass spectrometry; remark: listed apart in the source

binding [1]: binds
Molecule: BRG1 transcriptional activator (from UniProt P51532 1-1647)

binding [1]: binds
Molecule: CREB binding protein (from UniProt Q92793 1-2442)

binding [1]: binds
Molecule: retinoid X receptor (RXR), endogenous (human (endogenous in HEK293))

binding [2]: binds
B1: NCoA-5 (protein, UniProt Q9HCD5 1-579)
chain: MNTAPSRPSPTRRDPYGFGDSRDSRRDRSPIRGSPRREPRDGRNGRDARDSRDIRDPRDLRDHRHSRDLRDHRDSRSVRDVRDVRDLRDFRDLRDSRDFRDQRDPMYDRYRDMRDSRDPMYRREGSYDRYLRMDDYCRRKDDSYFDRYRDSFDGRGPPGPESQSRAKERLKREERRREELYRQYFEEIQRRFDAERPVDCSVIVVNKQTKDYAESVGRKVRDLGMVVDLIFLNTEVSLSQALEDVSRGGSPFAIVITQQHQIHRSCTVNIMFGTPQEHRNMPQADAMVLVARNYERYKNECREKEREEIARQAAKMADEAILQERERGGPEEGVRGGHPPAIQSLINLLADNRYLTAEETDKIINYLRERKERLMRSSTDSLPGPISRQPLGATSGASLKTQPSSQPLQSGQVLPSATPTPSAPPTSQQELQAKILSLFNSGTVTANSSSASPSVAAGNTPNQNFSTAANSQPQQRSQASGNQPPSILGQGGSAQNMGPRPGAPSQGLFGQPSSRLAPASNMTSQRPVSSTGINFDNPSVQKALDTLIQSGPALSHLVSQTTAQMGQPQAPMGSYQRHY

binding [2]: binds
B2: CCCCTC-Binding Factor (CTCF) repressor (protein, UniProt P49711 1-727)
chain: MEGDAVEAIVEESETFIKGKERKTYQRRREGGQEEDACHLPQNQTDGGEVVQDVNSSVQMVMMEQLDPTLLQMKTEVMEGTVAPEAEAAVDDTQIITLQVVNMEEQPINIGELQLVQVPVPVTVPVATTSVEELQGAYENEVSKEGLAESEPMICHTLPLPEGFQVVKVGANGEVETLEQGELPPQEDPSWQKDPDYQPPAKKTKKTKKSKLRYTEEGKDVDVSVYDFEEEQQEGLLSEVNAEKVVGNMKPPKPTKIKKKGVKKTFQCELCSYTCPRRSNLDRHMKSHTDERPHKCHLCGRAFRTVTLLRNHLNTHTGTRPHKCPDCDMAFVTSGELVRHRRYKHTHEKPFKCSMCDYASVEVSKLKRHIRSHTGERPFQCSLCSYASRDTYKLKRHMRTHSGEKPYECYICHARFTQSGTMKMHILQKHTENVAKFHCPHCDTVIARKSDLGVHLRKQHSYIEQGKKCRYCDAVFHERYALIQHQKSHKNEKRFKCDQCDYACRQERHMIMHKRTHTGEKPYACSHCDKTFRQKQLLDMHFKRYHDPNFVPAAFVCSKCGKTFTRRNTMARHADNCAGPDGVEGENGGETKKSKRGRKRKMRSKKEDSSDSENAEPDLDDNEDEEEPAVEIEPEPEPQPVTPAPPPAKKRRGRPPGRTNQPKQNQPTAIIQVEDQNTGAIENIIVEVKKEPDAEPAEGEEEEAQPAATDAPNGDLTPEMILSMMDR

Reference: paper doi:10.1101/2025.02.03.636272
